# Source: patent publication US20240010730A1
# Results are given in words; binding and its absence hold for the method and conditions named. A result given as binding can be weak or reduced; the word gives no strength.
# B1: B3/29F6 (antibody, V domains shown)
# VH: DVQLQESGPGLVKPSQSLSLTCTVTGYSITSDYAWIWIRQFPGNKVEWMGYITSSGSTSYNPSLKSRISFTRDTSKNQFFLQLTSVTTEDTATYYCARLDFGNYGGAMDYWGQGTSVTVSS
# VL: DIVMTQSHKFMSTSIGDRVSITCKASQHVSTAVAWYQQKPGQSPKLLIYSASYRYTGVPDRFTGSRSGTDFTFTISSVQAEDLAVYYCQQHYITPYTFGGGTKLEIK
# Biological target: monkey TIGIT (hybridoma screening, Table 1) (monkey)
# Assay: ELISA/FACS screening
binder,measurement,value
B1,binding,binds
